In PubChem BioAssay AID1671190 (National Center for Advancing Translational Sciences (NCATS), 2021):
Out of some 580,000 compounds screened, about 6,100 (1.1%) were called active. The inconclusive results got no clear call from the source; some entries with a clear call stand among them for comparison. Calls come from the whole dose curve; as a rule, active = well fitted inhibition curve with a large enough effect; inconclusive = small, poorly fitted or top-dose-only effect, or another doubt; inactive = no such curve, though single readings can be large or run the other way. A potency beside an inconclusive call is a rough fit, not a confirmed value.

Sequences of proteins named here, by UniProt entry; tags and fusion partners are left off. A change or cut given only in a name is not applied to a line headed by its entry.
UniProt P18054: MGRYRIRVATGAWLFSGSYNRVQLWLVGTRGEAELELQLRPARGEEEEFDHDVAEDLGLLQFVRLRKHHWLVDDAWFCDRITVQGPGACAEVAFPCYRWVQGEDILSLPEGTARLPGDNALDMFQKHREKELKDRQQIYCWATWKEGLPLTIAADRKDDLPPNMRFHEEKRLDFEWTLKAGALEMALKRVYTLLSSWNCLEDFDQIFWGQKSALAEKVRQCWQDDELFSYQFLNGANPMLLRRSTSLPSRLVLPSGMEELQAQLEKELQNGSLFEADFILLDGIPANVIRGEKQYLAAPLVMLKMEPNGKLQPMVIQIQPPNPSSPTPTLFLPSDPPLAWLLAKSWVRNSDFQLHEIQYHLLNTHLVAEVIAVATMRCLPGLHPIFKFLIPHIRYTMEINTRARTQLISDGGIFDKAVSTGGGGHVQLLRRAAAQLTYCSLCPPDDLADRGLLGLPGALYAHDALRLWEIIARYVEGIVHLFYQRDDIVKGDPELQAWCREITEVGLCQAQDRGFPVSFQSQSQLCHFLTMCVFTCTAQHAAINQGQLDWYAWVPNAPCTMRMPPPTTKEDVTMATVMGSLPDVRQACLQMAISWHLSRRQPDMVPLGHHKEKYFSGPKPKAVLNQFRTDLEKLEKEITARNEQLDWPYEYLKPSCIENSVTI

What follows are molecules tested against Polyunsaturated fatty acid lipoxygenase ALOX12 (Homo sapiens) (UniProt P18054) (assay: Primary qHTS assay for inhibitors of human arachidonate 12S-lipoxygenase (ALOX12): Round 2). Conditions: purified 12hLO, xylenol orange hydroperoxide absorbance; activity change, negative = inhibition: at 108 µM (top of the series) unless noted.
Summary of the method: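 Purified human 12hLO at 150 nM in 25 mM Hepes, 0.01% Triton X-100, pH 7.0, preincubated 15 min at room temperature with compound. Reaction started with 40 uM arachidonic acid, 30 min at room temperature. Hydroperoxide measured by Fe-xylenol orange, 573/405 nm absorbance ratio.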
% is set by controls: 0 for no effect and ±100 for the full control effect; potency is the fitted concentration of half-maximal effect.

Compound	activity change, negative = inhibition	Potency
CN(CC1CCOCC1)C(=O)c1cc(F)ccc1Cl	inactive: 28.2%	–
O=C(c1cccnc1)N1CCN(Cc2c[nH]c3ccccc23)CC1	–	inconclusive: 1 µM [inhibitor, full curve]
CCOC(=O)COc1ccc(C)cc1-c1ccno1	inactive: 0%	–
O=C1/C(=C\c2ccc(O)c(O)c2)SC(=S)N1Cc1ccccc1	–	inconclusive: 3.16 µM [inhibitor, full curve, poor fit]
CCn1cc(C(=O)N2CC=C(c3ccccc3)CC2)c(=O)c2ccc(C)nc21	–	inconclusive: 56.2 µM [inhibitor, partial curve, poor fit]
Cc1cn2nc(C(=O)NCCc3cccs3)cc2c(N2CCSCC2)n1	inactive: -5.33%	–
Cc1cccc(C(=O)Oc2csc(=S)n2C(=O)c2cccc(C)c2)c1	–	inconclusive: 35.5 µM [inhibitor, partial curve, poor fit]
COc1ccc(OC)c(/C=C(/C#N)C(=O)C(C)(C)C)c1	–	inconclusive: 56.2 µM [inhibitor, partial curve, poor fit]
Cc1nc2cc(N=NC3=C(O)CCCC3=O)ccc2s1	–	inconclusive: 22.4 µM [inhibitor, partial curve, poor fit]
CCOCC(=O)N1CCCn2ccnc2C1CC (centres undefined)	inactive: 48.7%	–
CC(C)c1ccc(CC(=O)N2CCCc3ncc(C(=O)N4CCCC[C@@H]4Cc4ccccc4)cc32)cc1	inactive: 8.45%	–
CC(=O)NN1C(=O)c2ccccc2NC12CCCCC2	–	inconclusive: 0.316 µM [inhibitor, full curve, poor fit]
CCCc1c(C)nc2ncnn2c1Nc1cc(C)cc(C)c1	–	inconclusive: 2.51 µM [inhibitor, full curve, poor fit]
CC(=O)Oc1ccccc1/C=C/c1ccc2ccccc2[n+]1C	–	inconclusive: 50.1 µM [inhibitor, single point]
CN(C)c1ccc(C(CNC(=O)c2ccc(C#N)cc2)c2c[nH]c3ccccc23)cc1 (centres undefined)	–	inconclusive: 15.8 µM [inhibitor, partial curve, poor fit]
Cc1ccc(NC(=S)NC(CO)C(O)c2ccc([N+](=O)[O-])cc2)cc1 (centres undefined)	–	inconclusive: 7.94 µM [inhibitor, full curve, poor fit]
CC(C)Oc1ccc(C(=O)NC(=S)Nc2ccc(CN3CCOCC3)cc2)cc1	–	inconclusive: 22.4 µM [inhibitor, full curve]
Cc1ccccc1CN1CCc2c(n(Cc3ccccc3)n(-c3ccccc3)c2=O)C1	–	inconclusive: 22.4 µM [inhibitor, full curve, poor fit]
C/C(=N/O)c1ccc2c(c1)OCCOCCOc1cc(/C(C)=N/O)ccc1OCCOCCO2	inactive: -9.1%	–
CC(C)NC(=O)N1CCCC2(CCN(C(=O)c3cccn3C)CC2)C1	–	inconclusive: 31.6 µM [inhibitor, single point]
O=c1[nH]c(=O)n(C2CCCCCC2)c(O)c1C=NCc1ccc(F)cc1	–	inconclusive: 50.1 µM [inhibitor, partial curve, poor fit]
COc1ccc(NC(=O)Cn2c(=O)n(-c3ccc(OC)cc3)c(=O)c3sc4ccccc4c32)cc1	–	inconclusive: 141 µM [inhibitor, partial curve, poor fit]

Random excerpt: 2 entries already listed, in no set order.
Compound	activity change, negative = inhibition	Potency
CCOC(=O)COc1ccc(C)cc1-c1ccno1	inactive: 0%	–
CCOCC(=O)N1CCCn2ccnc2C1CC (centres undefined)	inactive: 48.7%	–

Further results follow.

Compound	activity change, negative = inhibition	Potency
COc1cc(OC)cc(C(=O)Nc2c(NC3CCCCC3)c3ccccc3oc2=O)c1	–	inconclusive: 44.7 µM [inhibitor, partial curve, poor fit]
COc1ccc(-c2noc([C@@H]3C[C@@H](O)CN3Cc3cccs3)n2)cc1	–	inconclusive: 39.8 µM [inhibitor, full curve]
CCCOc1ccc2c(c1)sc1ncc(NC(=O)c3ccccc3C)c(=O)n12	inactive: 3.57%	–
Cn1nc(C(F)(F)F)c(-c2ccc(F)cc2)c1NC(=O)Nc1ccc(F)cc1	inactive: 12.6%	–
CCC(C)(C)n1nnnc1C(c1ccc(Cl)cc1)N1CCN(C)CC1 (centres undefined)	–	inconclusive: 35.5 µM [inhibitor, single point]
CC(=O)Nc1cc(-c2ccccc2N(C)C)cn2c(-c3ccccc3)cnc12	–	active: 44.7 µM
O=C(Nc1ccccc1)[C@H]1O[C@H](CCN2CCN(c3ccc(F)cc3)CC2)CC[C@@H]1O	–	inconclusive: 126 µM [inhibitor, partial curve, poor fit]
COc1cccc(CN2CCc3ccccc3C2)c1OC	–	inconclusive: 0.112 µM [inhibitor, full curve, poor fit]
CCOC(=O)COc1cc(-n2c(=S)[nH]c3cc(OC)c(OC)cc3c2=O)c(Cl)cc1Cl	–	inconclusive: 56.2 µM [inhibitor, partial curve, poor fit]
O=C(COC(=O)c1ccc[nH]c1=O)NC1CCCC1	–	inconclusive: 11.2 µM [inhibitor, partial curve, poor fit]
O=C(N/N=C/c1ccc(N2CCCCC2)o1)c1ccccc1[N+](=O)[O-]	–	inconclusive: 35.5 µM [inhibitor, partial curve, poor fit]
COc1ccccc1C(=O)NCC(=O)NC(C)CCc1ccccc1 (centres undefined)	inactive: -1.74%	–
CC(=O)N1CCC2(CC1)CCN(c1ccncc1)CC2	–	inconclusive: 28.2 µM [inhibitor, single point]
O=[N+]([O-])c1ccc(/C=N/Nc2ccccn2)cc1	inactive: 0%	–
CC(C)(C)CN1CCNc2cc(Nc3ccccc3)ncc2C1	inactive: -2.42% [at 176 µM]	–
CCCCCc1ccc(-c2ccc(C3CCC(CCC)CC3)c(F)c2)nc1 (centres undefined)	inactive: -9.12%	–
Cc1ccnc(NC(=O)CCC2CCCCC2)c1	–	inconclusive: 20 µM [inhibitor, partial curve, poor fit]
CSc1ccc(C(C)NC(=O)c2ccc(F)cc2F)cc1 (centres undefined)	inactive: -0.977%	–
COc1ccc(-c2[nH]ncc2CN(C)CCc2c(C)n[nH]c2C)c(F)c1	inactive: -6.63%	–
C=CCNCCOCCOc1ccc(C)cc1[N+](=O)[O-]	–	inconclusive: 1.26 µM [inhibitor, full curve]
COc1ccc(C(=O)NCC(c2cccs2)N2CCc3ccccc32)cc1OC (centres undefined)	–	inconclusive: 50.1 µM [inhibitor, partial curve, poor fit]
CNC(=S)NCCSCc1ccccc1F	–	inconclusive: 44.7 µM [inhibitor, partial curve, poor fit]

As a short view, some entries already given:
Compound	activity change, negative = inhibition	Potency
CC(=O)NN1C(=O)c2ccccc2NC12CCCCC2	–	inconclusive: 0.316 µM [inhibitor, full curve, poor fit]
CCCc1c(C)nc2ncnn2c1Nc1cc(C)cc(C)c1	–	inconclusive: 2.51 µM [inhibitor, full curve, poor fit]
